Results are given in words; binding and its absence hold for the method and conditions named. Binding seen in cells or lysates may run through a third protein. These calls come from enrichment with a bait or labelling near it, and not all partners need be listed. Sequences can lack the tags named with a protein.
target: T1, FLAG-tagged ELK4 (wild type) (human) (UniProt P28324); assay: affinity purification with mass spectrometry; cells transfected with Flag-ELK4 or empty vector for 48 h, co-IP with anti-Flag antibody, SDS-PAGE, mass spectrometry
T1 sequence: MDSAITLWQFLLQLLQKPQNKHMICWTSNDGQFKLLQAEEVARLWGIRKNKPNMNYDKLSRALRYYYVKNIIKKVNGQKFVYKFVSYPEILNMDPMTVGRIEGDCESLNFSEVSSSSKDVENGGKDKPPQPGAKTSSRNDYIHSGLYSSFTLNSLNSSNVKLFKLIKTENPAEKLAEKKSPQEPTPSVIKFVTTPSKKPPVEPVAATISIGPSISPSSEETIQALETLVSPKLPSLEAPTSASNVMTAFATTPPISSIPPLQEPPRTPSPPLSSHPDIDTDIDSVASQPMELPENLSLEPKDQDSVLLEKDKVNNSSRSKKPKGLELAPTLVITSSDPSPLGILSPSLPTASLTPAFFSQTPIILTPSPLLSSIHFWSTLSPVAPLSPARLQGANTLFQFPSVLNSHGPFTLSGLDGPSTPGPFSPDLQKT

The chains behind the UniProt entries cited, without tags or fusion partners.
UniProt P28482: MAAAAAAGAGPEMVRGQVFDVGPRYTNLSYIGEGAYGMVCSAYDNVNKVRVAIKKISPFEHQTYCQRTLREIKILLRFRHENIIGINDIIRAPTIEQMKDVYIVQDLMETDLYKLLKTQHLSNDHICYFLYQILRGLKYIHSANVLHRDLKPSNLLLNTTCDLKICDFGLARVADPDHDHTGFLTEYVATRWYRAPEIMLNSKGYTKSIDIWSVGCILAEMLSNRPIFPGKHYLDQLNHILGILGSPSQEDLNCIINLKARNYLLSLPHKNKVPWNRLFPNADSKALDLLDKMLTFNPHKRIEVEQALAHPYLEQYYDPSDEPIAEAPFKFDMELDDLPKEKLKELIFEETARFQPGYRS
UniProt Q02447: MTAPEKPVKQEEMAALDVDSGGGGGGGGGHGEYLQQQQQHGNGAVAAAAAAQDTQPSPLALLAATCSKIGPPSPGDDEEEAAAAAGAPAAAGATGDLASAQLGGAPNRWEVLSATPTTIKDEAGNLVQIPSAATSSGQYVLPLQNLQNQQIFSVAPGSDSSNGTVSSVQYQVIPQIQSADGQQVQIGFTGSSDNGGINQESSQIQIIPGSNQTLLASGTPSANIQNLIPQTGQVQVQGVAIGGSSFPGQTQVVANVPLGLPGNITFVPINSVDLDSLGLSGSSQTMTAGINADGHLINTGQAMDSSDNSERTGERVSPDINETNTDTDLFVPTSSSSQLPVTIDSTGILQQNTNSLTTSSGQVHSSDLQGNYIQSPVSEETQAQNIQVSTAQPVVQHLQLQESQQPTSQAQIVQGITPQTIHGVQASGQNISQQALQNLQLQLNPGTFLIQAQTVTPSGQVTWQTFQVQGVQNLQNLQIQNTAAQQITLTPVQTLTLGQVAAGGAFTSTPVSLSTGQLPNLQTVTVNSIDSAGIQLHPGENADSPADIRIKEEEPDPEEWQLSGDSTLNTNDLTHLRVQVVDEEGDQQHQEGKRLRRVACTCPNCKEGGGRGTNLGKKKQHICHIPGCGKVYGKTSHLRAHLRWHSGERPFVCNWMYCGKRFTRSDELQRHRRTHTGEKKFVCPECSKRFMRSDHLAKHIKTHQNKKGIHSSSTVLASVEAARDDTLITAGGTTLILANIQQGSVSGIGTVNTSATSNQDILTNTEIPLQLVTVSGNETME
UniProt P08047: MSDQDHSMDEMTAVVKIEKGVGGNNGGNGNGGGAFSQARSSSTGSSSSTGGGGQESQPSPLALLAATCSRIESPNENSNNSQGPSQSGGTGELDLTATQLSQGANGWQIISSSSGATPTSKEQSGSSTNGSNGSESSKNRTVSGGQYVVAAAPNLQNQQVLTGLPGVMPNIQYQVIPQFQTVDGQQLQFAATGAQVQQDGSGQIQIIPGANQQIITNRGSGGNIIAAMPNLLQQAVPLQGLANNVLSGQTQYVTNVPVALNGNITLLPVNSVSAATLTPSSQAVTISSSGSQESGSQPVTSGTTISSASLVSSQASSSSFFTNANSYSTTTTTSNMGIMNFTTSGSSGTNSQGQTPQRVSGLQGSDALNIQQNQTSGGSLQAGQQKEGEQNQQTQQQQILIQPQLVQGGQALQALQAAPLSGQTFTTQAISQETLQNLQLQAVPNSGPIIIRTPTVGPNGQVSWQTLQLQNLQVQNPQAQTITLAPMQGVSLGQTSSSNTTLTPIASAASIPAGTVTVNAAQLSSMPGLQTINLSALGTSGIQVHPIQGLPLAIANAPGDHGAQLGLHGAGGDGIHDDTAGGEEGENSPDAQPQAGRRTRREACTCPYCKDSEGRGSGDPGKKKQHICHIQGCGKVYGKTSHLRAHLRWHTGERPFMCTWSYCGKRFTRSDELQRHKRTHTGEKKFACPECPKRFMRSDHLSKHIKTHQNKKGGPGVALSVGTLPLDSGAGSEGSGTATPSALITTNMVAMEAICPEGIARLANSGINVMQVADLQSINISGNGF

binding, binds:
ERK2 (from UniProt P28482 1-360) (enzyme), endogenous SP3 (from UniProt Q02447 1-781), endogenous SP1 (from UniProt P08047 1-785)
